Data published in PMC7615972.
Results are given in words; binding and its absence hold for the method and conditions named. Some results given as binding are weak or reduced against the parent protein; the word gives no strength.

Amino acid sequences for entries named in this document (tags omitted). Residues count along the entry.
UniProt Q6PDJ1, residues 50-1109: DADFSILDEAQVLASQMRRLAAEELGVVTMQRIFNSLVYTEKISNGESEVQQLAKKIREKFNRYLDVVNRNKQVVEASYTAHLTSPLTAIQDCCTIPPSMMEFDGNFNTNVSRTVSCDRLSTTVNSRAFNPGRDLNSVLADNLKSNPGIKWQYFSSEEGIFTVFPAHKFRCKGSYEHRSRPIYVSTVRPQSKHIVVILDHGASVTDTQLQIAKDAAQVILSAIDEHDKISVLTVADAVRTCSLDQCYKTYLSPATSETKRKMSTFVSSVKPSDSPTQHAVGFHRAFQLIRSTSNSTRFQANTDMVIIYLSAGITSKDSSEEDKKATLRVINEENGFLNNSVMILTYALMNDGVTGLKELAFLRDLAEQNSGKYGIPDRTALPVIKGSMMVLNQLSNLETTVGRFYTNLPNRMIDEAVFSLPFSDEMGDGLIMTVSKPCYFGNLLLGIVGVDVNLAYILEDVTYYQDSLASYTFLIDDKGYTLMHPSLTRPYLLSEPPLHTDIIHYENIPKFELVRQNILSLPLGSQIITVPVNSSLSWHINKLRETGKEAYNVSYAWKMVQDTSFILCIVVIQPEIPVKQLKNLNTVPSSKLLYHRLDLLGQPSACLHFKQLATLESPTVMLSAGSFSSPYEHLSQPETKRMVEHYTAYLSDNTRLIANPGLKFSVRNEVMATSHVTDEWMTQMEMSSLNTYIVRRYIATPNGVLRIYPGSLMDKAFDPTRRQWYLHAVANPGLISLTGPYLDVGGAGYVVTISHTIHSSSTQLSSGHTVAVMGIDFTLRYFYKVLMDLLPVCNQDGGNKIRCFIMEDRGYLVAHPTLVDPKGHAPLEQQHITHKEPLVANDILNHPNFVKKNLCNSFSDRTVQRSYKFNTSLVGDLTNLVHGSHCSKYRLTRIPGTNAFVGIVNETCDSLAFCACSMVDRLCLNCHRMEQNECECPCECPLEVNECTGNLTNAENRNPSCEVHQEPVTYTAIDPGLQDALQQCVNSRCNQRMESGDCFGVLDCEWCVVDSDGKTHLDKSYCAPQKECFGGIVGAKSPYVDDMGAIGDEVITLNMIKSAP

Legend:
[1] = molecular target: T1, human LRP6 membrane proximal fragment (LRP6_(P3E3P4E4)) (human) (UniProt O75581); experiment: crystal structure; cocrystallization of CACHD1ECD with FZD5CRD and LRP6_(P3E3P4E4); 4.7 Å; molecular replacement; three ternary complexes in the asymmetric unit; both purified
T1 sequence: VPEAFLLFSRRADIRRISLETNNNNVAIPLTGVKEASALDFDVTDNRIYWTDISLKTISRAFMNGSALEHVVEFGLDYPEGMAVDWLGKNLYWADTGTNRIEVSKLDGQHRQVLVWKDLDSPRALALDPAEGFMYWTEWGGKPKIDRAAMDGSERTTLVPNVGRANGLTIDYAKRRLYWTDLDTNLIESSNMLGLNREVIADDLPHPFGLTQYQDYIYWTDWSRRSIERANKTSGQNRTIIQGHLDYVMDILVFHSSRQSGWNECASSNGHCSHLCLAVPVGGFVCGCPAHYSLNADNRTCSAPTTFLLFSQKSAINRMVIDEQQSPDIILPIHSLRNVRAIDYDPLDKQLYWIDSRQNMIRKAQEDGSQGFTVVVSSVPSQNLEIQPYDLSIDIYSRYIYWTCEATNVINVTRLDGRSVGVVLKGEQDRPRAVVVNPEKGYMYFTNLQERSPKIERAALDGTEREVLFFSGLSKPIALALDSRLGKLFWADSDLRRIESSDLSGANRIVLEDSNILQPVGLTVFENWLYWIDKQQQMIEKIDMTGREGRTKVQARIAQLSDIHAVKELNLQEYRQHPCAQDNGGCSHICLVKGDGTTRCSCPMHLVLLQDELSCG

[2] = molecular target: T2, mouse FZD5 cysteine-rich domain (FZD5CRD) (mouse) (UniProt Q9EQD0); experiment: as above
T2 sequence: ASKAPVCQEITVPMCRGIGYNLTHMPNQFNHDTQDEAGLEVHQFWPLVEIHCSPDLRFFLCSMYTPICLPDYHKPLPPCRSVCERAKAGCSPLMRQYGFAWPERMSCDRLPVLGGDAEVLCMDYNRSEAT

- binding [1]: binds
- binding [2]: binds
Substance: purified mouse CACHD1 extracellular domain (CACHD1ECD) (from UniProt Q6PDJ1 50-1109) (domain or fragment)
